Measurements from patent US10563263B2, “Genetic polymorphisms associated with statin response and cardiovascular diseases, methods of detection and uses thereof” (CELERA CORPORATION, priority 2010, dated 2020).
Further values from the same series stand in other lists.

System: CVD (CHD or stroke)
Assay: Meta-analysis of CARE and WOSCOPS combined, synergy index, CVD endpoint
Assay type: in vivo, human
Description: Tables 4-5 provide meta-analyses of CARE and WOSCOPS combined (2nd section of each table) for two endpoints (CHD and CVD) and three genetic models (dominant, recessive, and additive), as well as logistic regression analyses of CARE (3rd section of each table) and WOSCOPS (4th section of each table) individually.
Tables 12 and 17 provide results of meta-analysis of the CARE and WOSCOPS sample sets combined by direct genotyping and by imputing genotypes.
“P” indicates the p-value, and “P(R)” (or “P.R.”) indicates the p-value random effect. Both of these are p-values corresponding to a statistical test of whether the combined synergy index is equal to one but use different assumptions to derive the p-value. “P” is calculated using a fixed effects model, and “P(R)” is calculated using a random effects model.
“OR” indicates the odds ratio (synergy index) calculated from a fixed effects model, and “OR(R)” (or “OR.R.”) indicates the odds ratio (synergy index) calculated from a random effects model.

[1] = rs613799 allele C DOMINANT Imputed
[2] = rs644041 allele G ADDITIVE Imputed
[3] = rs644041 allele G DOMINANT Imputed
[4] = rs647645 allele C ADDITIVE Imputed
[5] = rs647645 allele C GENOTYPIC Imputed
[6] = rs647645 allele C RECESSIVE Imputed
[7] = rs658108 allele A DOMINANT Imputed
[8] = rs668732 allele A DOMINANT Imputed
[9] = rs671041 allele A DOMINANT Imputed
[10] = rs687047 allele C ADDITIVE Imputed
[11] = rs688358 allele A ADDITIVE Imputed
[12] = rs710832 allele A GENOTYPIC Genotyped
[13] = rs710832 allele A RECESSIVE Genotyped
[14] = rs742827 allele A ADDITIVE Imputed
[15] = rs742827 allele A GENOTYPIC Imputed
[16] = rs742827 allele A RECESSIVE Imputed
[17] = rs6040644 allele A GENOTYPIC Imputed
[18] = rs6040644 allele A RECESSIVE Imputed
[19] = rs6040667 allele T ADDITIVE Imputed
[20] = rs6040667 allele T GENOTYPIC Imputed
[21] = rs6040667 allele T RECESSIVE Imputed
[22] = rs6040668 allele C ADDITIVE Imputed
[23] = rs6040668 allele C GENOTYPIC Imputed
[24] = rs6040668 allele C RECESSIVE Imputed
[25] = rs6043066 allele G DOMINANT Genotyped
[26] = rs6048146 allele G DOMINANT Imputed
[27] = rs6082725 allele T DOMINANT Genotyped
[28] = rs6131206 allele C ADDITIVE Imputed
[29] = rs6131208 allele T ADDITIVE Imputed
[30] = rs6131208 allele T GENOTYPIC Imputed
[31] = rs6131208 allele T RECESSIVE Imputed
[32] = rs6134243 allele C ADDITIVE Imputed
[33] = rs6134243 allele C GENOTYPIC Imputed
[34] = rs6134243 allele C RECESSIVE Imputed
[35] = rs6136020 allele A DOMINANT Imputed
[36] = rs6495554 allele C GENOTYPIC Imputed
[37] = rs6495554 allele C RECESSIVE Imputed
[38] = rs6495555 allele C GENOTYPIC Imputed
[39] = rs6495555 allele C RECESSIVE Imputed
[40] = rs6544728 allele T DOMINANT Imputed
[41] = rs6550705 allele C ADDITIVE Imputed
[42] = rs6550705 allele C GENOTYPIC Imputed
[43] = rs6550707 allele T GENOTYPIC Imputed
[44] = rs6593441 allele A DOMINANT Imputed
[45] = rs6719700 allele A ADDITIVE Imputed
[46] = rs6719700 allele A DOMINANT Imputed
[47] = rs6722640 allele T DOMINANT Imputed
[48] = rs6743092 allele T ADDITIVE Imputed
[49] = rs6743092 allele T GENOTYPIC Imputed
[50] = rs6743092 allele T RECESSIVE Imputed
[51] = rs6744759 allele G RECESSIVE Imputed
[52] = rs6746170 allele A DOMINANT Imputed
[53] = rs6759922 allele A DOMINANT Imputed
[54] = rs6769864 allele T GENOTYPIC Imputed
[55] = rs6773932 allele C GENOTYPIC Imputed

## CC[C@H](C)C(=O)O[C@H]1C[C@H](O)C=C2C=C[C@H](C)[C@H](CC[C@@H](O)C[C@@H](O)CC(=O)O)[C@H]21 [Pravastatin, pravastatin]
rs483159 allele T DOMINANT Imputed
  OR: 1.4202
rs489441 allele G ADDITIVE Imputed
  OR: 1.4992
rs489441 allele G DOMINANT Imputed
  OR: 1.6072
[1]
  OR: 1.5657
  OR(R): 1.5657
[2]
  OR: 1.4631
  OR(R): 1.4631
[3]
  OR: 1.5751
  OR(R): 1.5751
[4]
  OR: 0.7025
  OR(R): 0.7025
[5]
  OR: 0.4822
  OR(R): 0.4822
[6]
  OR: 0.5474
  OR(R): 0.5474
[7]
  OR: 1.5304
  OR(R): 1.5304
[8]
  OR: 1.6958
  OR(R): 1.6958
[9]
  OR: 1.5412
  OR(R): 1.5412
[10]
  OR: 0.6716
  OR(R): 0.6716
[11]
  OR: 0.6614
  OR(R): 0.6614
[12]
  OR: 0.3641
  OR(R): 0.3641
[13]
  OR: 0.3456
  OR(R): 0.3456
[14]
  OR: 1.3962
  OR(R): 1.3962
[15]
  OR: 1.9872
  OR(R): 1.9872
[16]
  OR: 1.6988
  OR(R): 1.6988
rs937890 allele G (A1), DOMINANT, Imputed
  OR: 0.6731
rs949016 allele C (A1), ADDITIVE, Imputed
  OR: 1.5082
rs966583 allele A (A1), ADDITIVE, Imputed
  OR: 0.7272
rs966583 allele A (A1), DOMINANT, Imputed
  OR: 0.5916
rs974130 allele A (A1), RECESSIVE, Genotyped
  OR: 2.0112
rs977160 allele T (A1), ADDITIVE, Imputed
  OR: 1.5465
rs985375 allele A (A1), GENOTYPIC, Imputed
  OR: 2.8891
rs4760895 allele A ADDITIVE Imputed
  OR: 0.7392
rs4760895 allele A DOMINANT Imputed
  OR: 0.6285
rs4760895 allele A GENOTYPIC Imputed
  OR: 0.574
rs4764738 allele A ADDITIVE Imputed
  OR: 1.4051
rs4764738 allele A GENOTYPIC Imputed
  OR: 1.9728
rs4764974 allele T ADDITIVE Imputed
  OR: 1.3855
rs4764974 allele T GENOTYPIC Imputed
  OR: 1.9196
rs4798366 allele G RECESSIVE Imputed
  OR: 1.8332
rs4836502 allele T DOMINANT Imputed
  OR: 0.6712
rs4836507 allele C DOMINANT Imputed
  OR: 0.6775
rs4836744 allele A ADDITIVE Imputed
  OR: 0.7345
rs4836744 allele A DOMINANT Imputed
  OR: 0.6854
rs4848944 allele C RECESSIVE Genotyped
  OR: 0.5945
rs4851529 allele A DOMINANT Imputed
  OR: 0.6476
rs4851531 allele T DOMINANT Imputed
  OR: 0.6621
rs4858046 allele T GENOTYPIC Genotyped
  OR: 2.0533
rs4878214 allele A ADDITIVE Imputed
  OR: 0.6477
rs4880803 allele A ADDITIVE Imputed
  OR: 0.7694
rs4896568 allele T DOMINANT Imputed
  OR: 0.6231
rs4938851 allele T DOMINANT Imputed
  OR: 1.4515
rs4964416 allele C DOMINANT Imputed
  OR: 0.6251
rs5756669 allele C DOMINANT Imputed
  OR: 1.6531
rs6033138 allele C ADDITIVE Imputed
  OR: 1.3837
rs6033138 allele C GENOTYPIC Imputed
  OR: 1.9484
rs6033138 allele C RECESSIVE Imputed
  OR: 1.6769
rs6040619 allele C ADDITIVE Imputed
  OR: 1.3881
rs6040619 allele C GENOTYPIC Imputed
  OR: 2.0334
rs6040619 allele C RECESSIVE Imputed
  OR: 1.7879
rs6040625 allele T ADDITIVE Imputed
  OR: 1.3888
rs6040625 allele T GENOTYPIC Imputed
  OR: 2.0214
rs6040625 allele T RECESSIVE Imputed
  OR: 1.7684
rs6040630 allele A ADDITIVE Imputed
  OR: 1.3767
rs6040630 allele A GENOTYPIC Imputed
  OR: 1.9741
rs6040630 allele A RECESSIVE Imputed
  OR: 1.7241
rs6040633 allele A ADDITIVE Imputed
  OR: 1.3703
rs6040633 allele A GENOTYPIC Imputed
  OR: 1.9475
rs6040633 allele A RECESSIVE Imputed
  OR: 1.6999
rs6040634 allele T ADDITIVE Imputed
  OR: 1.3722
rs6040634 allele T GENOTYPIC Imputed
  OR: 1.9531
rs6040634 allele T RECESSIVE Imputed
  OR: 1.7021
rs6040636 allele T ADDITIVE Imputed
  OR: 1.3761
rs6040636 allele T GENOTYPIC Imputed
  OR: 1.9585
rs6040636 allele T RECESSIVE Imputed
  OR: 1.7021
rs6040638 allele C ADDITIVE Imputed
  OR: 1.3722
rs6040638 allele C GENOTYPIC Imputed
  OR: 1.9531
rs6040638 allele C RECESSIVE Imputed
  OR: 1.7021
rs6040644 allele A ADDITIVE Imputed
  OR: 1.3722
[17]
  OR: 1.9531
  OR(R): 1.9531
[18]
  OR: 1.7021
  OR(R): 1.7021
[19]
  OR: 1.3662
  OR(R): 1.3662
[20]
  OR: 1.9386
  OR(R): 1.9386
[21]
  OR: 1.6903
  OR(R): 1.6903
[22]
  OR: 1.3643
  OR(R): 1.3643
[23]
  OR: 1.9325
  OR(R): 1.9325
[24]
  OR: 1.6839
  OR(R): 1.6839
[25]
  OR: 1.4888
  OR(R): 1.4596
[26]
  OR: 2.6562
  OR(R): 2.6562
[27]
  OR: 2.6562
  OR(R): 2.6562
[28]
  OR: 1.3126
  OR(R): 1.3126
[29]
  OR: 1.3725
  OR(R): 1.3725
[30]
  OR: 1.9551
  OR(R): 1.9551
[31]
  OR: 1.7011
  OR(R): 1.7011
[32]
  OR: 1.3722
  OR(R): 1.3722
[33]
  OR: 1.9531
  OR(R): 1.9531
[34]
  OR: 1.7021
  OR(R): 1.7021
[35]
  OR: 0.5953
  OR(R): 0.5953
[36]
  OR: 3.4509
  OR(R): 3.4509
[37]
  OR: 3.317
  OR(R): 3.317
[38]
  OR: 3.4509
  OR(R): 3.4509
[39]
  OR: 3.317
  OR(R): 3.317
[40]
  OR: 1.6406
  OR(R): 1.6406
[41]
  OR: 1.3969
  OR(R): 1.3969
[42]
  OR: 2.0995
  OR(R): 2.0995
[43]
  OR: 2.0358
  OR(R): 2.0358
[44]
  OR: 1.6724
  OR(R): 1.6724
[45]
  OR: 1.4892
  OR(R): 1.4892
[46]
  OR: 1.5282
  OR(R): 1.5282
[47]
  OR: 0.6343
  OR(R): 0.6343
[48]
  OR: 1.3618
  OR(R): 1.3618
[49]
  OR: 1.8571
  OR(R): 1.8571
[50]
  OR: 1.5648
  OR(R): 1.5648
[51]
  OR: 1.7637
  OR(R): 1.7637
[52]
  OR: 1.6166
  OR(R): 1.6166
[53]
  OR: 0.5892
  OR(R): 0.5892
[54]
  OR: 2.0921
  OR(R): 2.0921
[55]
  OR: 2.0503
  OR(R): 2.0503
